# Data from PubChem BioAssay AID504467 (National Center for Advancing Translational Sciences (NCATS), 2011).
# The whole screen tested about 330,000 compounds, of which about 7,700 (2.3%) were called active. This list was built around the results that the source calls inconclusive (neither active nor inactive); the mix of calls is not that of the screen. Calls follow the shape of the dose curve; as a rule, active = well fitted inhibition curve with a large enough effect; inconclusive = small, poorly fitted or top-dose-only effect, or effect the other way; inactive = flat fitted curve, though single readings scatter. A potency beside an inconclusive call is a rough fit, not a confirmed value.
# Assay: qHTS screen for small molecules that inhibit ELG1-dependent DNA repair in human embryonic kidney (HEK293T) cells expressing luciferase-tagged ELG1; also: nearly all actives have a fitted effect of over 55% in size
# Details: HEK293T ELG1-luciferase reporter, luminescence, 16 h, DNA damage induced by 5-fluorouridine; activity change, negative = inhibition: at 46.1 µM (top of the series)
# In short: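 5-Fluorouridine DNA damage + compound/DMSO, 2,000 cells/well, 16 h, 37 °C/5% CO2. ONE-Glo, 30 min RT, luminescence. Readout = decrease in reporter signal.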
# % is scaled to controls: 0 for no effect and ±100 for the full control effect; potency is read from the fitted curve at half-maximal effect.
Compound,"activity change, negative = inhibition",Potency
COc1ccc(Br)cc1CN(C)CC(=O)Nc1cc(Cl)ccc1Cl,inactive: -23.1%,
COc1ccc(CC(=O)n2[nH]c(=O)cc(C)c2=O)cc1OC,inactive: 3.84%,
O=C1CC(SC(=Nc2ccccc2)Nc2ccccc2)C(=O)N1c1ccc(Cl)c(Cl)c1 (stereo unspecified),inactive: -9.57%,
Cc1ccc(NC(=O)CCNC(=O)c2ccc(Cl)cc2)nc1,,"inconclusive: 20.6 µM [activator, partial curve]"
CS(=O)(=O)Nc1ccc(C2=NN(C(=O)c3ccco3)C(c3ccccc3F)C2)cc1 (stereo unspecified),inactive: -20.4%,
Cc1cc(C)n(CCOC(=O)c2sc3ccccc3c2Cl)n1,,"inconclusive: 20.6 µM [activator, single point]"
CCC(C)(CN(C)C)OC(=O)c1ccccc1 (stereo unspecified),,"inconclusive: 14.1 µM [activator, single point]"
CCCn1c(C(C)Nc2nc(-c3ccc(C)cc3)cs2)nc2cc(Cl)c(Cl)cc21 (stereo unspecified),inactive: 0.239%,
CN(C)CCN1C(=O)NC(C)(c2ccc([N+](=O)[O-])cc2)C1=O (stereo unspecified),,"inconclusive: 18.3 µM [activator, partial curve, poor fit]"
O=C(O)c1ccccc1-c1csc(-c2ccccc2)n1,,"inconclusive: 20.6 µM [activator, partial curve]"
COc1cc(/C=C2/C(=O)ON=C2C)cc(Cl)c1O,inactive: 14.6%,
O=C(CCNC(=O)N1CC(=O)Nc2ccccc21)NCc1cccc(Cl)c1,inactive: 8.29%,
CCOc1ccc(-c2nc(CSCC(=O)N3CCN(c4cccc(OC)c4)CC3)c(C)o2)cc1,,"inconclusive: 13 µM [inhibitor, partial curve, poor fit]"
O=C(c1cc(-c2ccccc2)n[nH]1)N1CCc2c([nH]c3ccccc23)C1c1ccccn1 (stereo unspecified),,"inconclusive: 20.6 µM [inhibitor, single point]"
Clc1cccc(/C=N/Nc2nc(Cl)nc3ccccc23)c1,,"inconclusive: 18.4 µM [activator, partial curve]"
COC(=O)[C@H](Cc1ccccc1)NC(=O)N1CCCCCC1,,"inconclusive: 16.4 µM [activator, single point]"
Cc1nc(N2CCN(c3ccccn3)CC2)c2c(C)c(C(=O)Nc3ccc(F)cc3Cl)sc2n1,,"inconclusive: 13 µM [inhibitor, partial curve]"
O=C(/C=C/c1ccc(Br)cc1)c1ccco1,,"inconclusive: 16.4 µM [activator, single point]"
N#C/C(=C(/O)CN1CCOCC1)c1nc(-c2ccccc2)cs1,,"inconclusive: 25.9 µM [activator, single point]"
CC(O)c1cccc(N=Cc2ccc3ccccc3c2O)c1 (stereo unspecified),inactive: -19.4%,
CCOc1ccc(Nc2nc(Cc3nnc(SCC(=O)NC4CCCCC4)n3C)cs2)cc1,inactive: -12%,
COc1ccccc1NC(=O)c1cccc(S(=O)(=O)N2CCN(Cc3ccccc3)CC2)c1,inactive: -8.76%,
Cc1cc(NS(=O)(=O)c2ccc(NC(=S)NC(=O)/C=C/c3ccccc3)cc2)no1,inactive: 3.16%,
CC(=O)Nc1oc(-c2cccc3ccccc23)nc1C#N,,"inconclusive: 20.6 µM [activator, partial curve, poor fit]"

# 16 structures out of the list, arranged by length of the SMILES, ascending:
Compound,"activity change, negative = inhibition",Potency
CCC(C)(CN(C)C)OC(=O)c1ccccc1 (stereo unspecified),,"inconclusive: 14.1 µM [activator, single point]"
O=C(/C=C/c1ccc(Br)cc1)c1ccco1,,"inconclusive: 16.4 µM [activator, single point]"
O=C(O)c1ccccc1-c1csc(-c2ccccc2)n1,,"inconclusive: 20.6 µM [activator, partial curve]"
COc1cc(/C=C2/C(=O)ON=C2C)cc(Cl)c1O,inactive: 14.6%,
Clc1cccc(/C=N/Nc2nc(Cl)nc3ccccc23)c1,,"inconclusive: 18.4 µM [activator, partial curve]"
Cc1ccc(NC(=O)CCNC(=O)c2ccc(Cl)cc2)nc1,,"inconclusive: 20.6 µM [activator, partial curve]"
COC(=O)[C@H](Cc1ccccc1)NC(=O)N1CCCCCC1,,"inconclusive: 16.4 µM [activator, single point]"
COc1ccc(CC(=O)n2[nH]c(=O)cc(C)c2=O)cc1OC,inactive: 3.84%,
O=C(CCNC(=O)N1CC(=O)Nc2ccccc21)NCc1cccc(Cl)c1,inactive: 8.29%,
CN(C)CCN1C(=O)NC(C)(c2ccc([N+](=O)[O-])cc2)C1=O (stereo unspecified),,"inconclusive: 18.3 µM [activator, partial curve, poor fit]"
CCOc1ccc(Nc2nc(Cc3nnc(SCC(=O)NC4CCCCC4)n3C)cs2)cc1,inactive: -12%,
CCCn1c(C(C)Nc2nc(-c3ccc(C)cc3)cs2)nc2cc(Cl)c(Cl)cc21 (stereo unspecified),inactive: 0.239%,
COc1ccccc1NC(=O)c1cccc(S(=O)(=O)N2CCN(Cc3ccccc3)CC2)c1,inactive: -8.76%,
Cc1cc(NS(=O)(=O)c2ccc(NC(=S)NC(=O)/C=C/c3ccccc3)cc2)no1,inactive: 3.16%,
CCOc1ccc(-c2nc(CSCC(=O)N3CCN(c4cccc(OC)c4)CC3)c(C)o2)cc1,,"inconclusive: 13 µM [inhibitor, partial curve, poor fit]"
Cc1nc(N2CCN(c3ccccn3)CC2)c2c(C)c(C(=O)Nc3ccc(F)cc3Cl)sc2n1,,"inconclusive: 13 µM [inhibitor, partial curve]"

# (cont.)

Compound,"activity change, negative = inhibition",Potency
COc1cc(OC)c(-c2nnc(-c3ccc(OC)c(OC)c3OC)o2)cc1OC,,"inconclusive: 6.51 µM [inhibitor, full curve]"
CCOC(=O)c1cc(C#N)c(N2CCN(c3ccccn3)CC2)nc1-c1ccccc1,,"inconclusive: 29.1 µM [inhibitor, single point]"
Nc1nnc(SCC(=O)c2cccc([N+](=O)[O-])c2)s1,inactive: 2.62%,
CNC(=S)NCCC(c1ccccc1)c1ccccc1,,"inconclusive: 20.6 µM [activator, partial curve, poor fit]"
CCC(CC)c1nnc(NC(=O)c2ccc([N+](=O)[O-])cc2)s1,inactive: 3.78%,
Cc1ccc(NC(=S)NC(=O)c2sc3ccccc3c2Cl)c(C(=O)O)c1,,"inconclusive: 29.1 µM [activator, partial curve, poor fit]"
CN(Cc1ccc(Cl)c(Cl)c1)C(=O)c1ccccc1SCC(=O)N1CCCC1,,"inconclusive: 32.6 µM [inhibitor, partial curve, poor fit]"
COC(=O)c1nnn(-c2ccccc2)c1N,,"inconclusive: 16.4 µM [activator, partial curve, poor fit]"
COC(/C=C/Nc1ccc(Br)cc1)=C(C#N)C#N,,"inconclusive: 0.0103 µM [activator, full curve, poor fit]"
CCN(CC(=O)Nc1ccc(Cl)c(C(F)(F)F)c1)CC(=O)NC1CCS(=O)(=O)C1 (stereo unspecified),,"inconclusive: 20.6 µM [inhibitor, single point]"
Cc1cc(C)c(OCC(=O)Nc2cccc(NC(=O)c3ccco3)c2)c(Br)c1,,"inconclusive: 23.1 µM [inhibitor, single point]"
CCOC(=O)c1c(NC(=O)c2nn(CC)cc2Br)c(C#N)nn1-c1ccccc1,,"inconclusive: 18.4 µM [inhibitor, single point]"
CCOC(=O)c1cnc2c(N=Nc3ccccc3)c(N)nn2c1N,,"inconclusive: 4.11 µM [activator, partial curve]"
Cc1ccc(-c2noc(CNC(=O)c3ccc4c(c3)OCO4)n2)cc1,inactive: 8.21%,
CC(=O)c1cccc(Nc2c([N+](=O)[O-])c(=O)oc3ccccc23)c1,inactive: 5.58%,
COCCn1c(C(C)C)nc2oc3ccccc3c(=O)c2c1=O,,active: 1.41 µM
COc1ccccc1N1CCN(CCC(=O)Nc2cccc(Cl)c2)CC1,inactive: -26.6%,
CCOC(=O)C1C(C(=O)OC)=C(c2ccc(OC)cc2)c2ccc(OC)cc2N1S(=O)(=O)C(F)(F)F (stereo unspecified),,active: 4.11 µM
Nc1cc(OCC(F)(F)F)cc([N+](=O)[O-])c1,,"inconclusive: 18.4 µM [activator, partial curve, poor fit]"
O=C(O)C1CCN(C(=O)c2ccccc2Cl)CC1,inactive: 6.28%,
CCn1c(CC(=O)Nc2ccc(C)cc2)n[nH]c1=S,inactive: -4.03%,
CC(C)(C)c1ccc2c(c1)OC(C(=O)N/N=C\c1ccncc1)CO2 (stereo unspecified),,active: 14.6 µM
COC(=O)c1ccccc1NC(=O)C1CCCN(S(=O)(=O)c2ccc(OC)cc2)C1 (stereo unspecified),,"inconclusive: 20.6 µM [inhibitor, single point]"
Cc1cnn(-c2ccc3nnc(-c4ccc(Cl)cc4)n3n2)c1,inactive: 19.7%,

Compound,"activity change, negative = inhibition",Potency
COC(=O)c1ccc2c(CCO)c[nH]c2c1,,"inconclusive: 10.3 µM [activator, single point]"
CCOC(=O)/C(=N\Nc1ccc(OC)cc1)c1csc(Nc2ccccc2)n1,,active: 16.4 µM
O=S(=O)(Cc1cc(-c2ccc(Cl)cc2)no1)c1ccccc1,,"inconclusive: 16.4 µM [activator, partial curve]"
O=[N+]([O-])c1ccc(F)cc1OCc1nc(-c2cccs2)no1,,"inconclusive: 13 µM [activator, partial curve]"
COc1ccc2cc(CCNC(=O)c3ccc(S(=O)(=O)N4CCOCC4)cc3)c(=O)[nH]c2c1,,"inconclusive: 29.1 µM [inhibitor, single point]"
Cn1c(/C=C/c2ccccc2)nc2ccccc21,,"inconclusive: 0.366 µM [activator, full curve]"
CCC(C)C(=O)N1CCCC(c2nc(-c3cccs3)no2)C1 (stereo unspecified),,"inconclusive: 10.3 µM [activator, partial curve]"
Nc1ccccc1SC(C[N+](=O)[O-])c1ccccc1 (stereo unspecified),,"inconclusive: 29.1 µM [activator, single point]"
COc1ccc(NC(=O)C2CCC(CNS(=O)(=O)c3cccs3)CC2)cc1 (stereo unspecified),,"inconclusive: 29.1 µM [activator, single point]"
CC(/C=N/NC(=O)c1ccccc1F)c1ccccc1 (stereo unspecified),,"inconclusive: 20.6 µM [activator, partial curve, poor fit]"
O=C(c1ccco1)N1CCN(Cc2ccccc2Br)CC1,,"inconclusive: 23.1 µM [activator, partial curve]"
CN(Cc1ccccc1)C(=O)c1ccc(NC(=O)C2CCCN(C(=O)OC(C)(C)C)C2)cc1 (stereo unspecified),,active: 20.6 µM
CN(C)/C=C(\c1cnc(Cl)s1)S(=O)(=O)c1ccccc1,inactive: -4.72%,
CC(=O)Nc1nnc(Cc2c[nH]c3ccccc23)s1,,"inconclusive: 32.6 µM [inhibitor, single point]"
Cc1cccc(OCCCCCn2ccnc2)c1C,,"inconclusive: 6.51 µM [inhibitor, partial curve]"
CC(=O)c1sc(C(C)(C)C)cc1NC(=O)/C=C/C(=O)O,,"inconclusive: 29.1 µM [activator, single point]"
O=C(Nc1ncccc1O)c1ccc2c(c1)OCCO2,,"inconclusive: 4.61 µM [activator, partial curve]"
O=C(Nc1ccc(CN2CCOCC2)cc1)c1cc2ccccc2o1,,"inconclusive: 2.59 µM [activator, partial curve]"
Cc1cccc(-n2cnc(C(=O)NNC(=S)Nc3ccc(Cl)cc3)c2)n1,,"inconclusive: 13 µM [inhibitor, partial curve]"
CC(Oc1ccccc1)C(=O)Nc1oc(-c2ccco2)c(-c2ccco2)c1C#N (stereo unspecified),inactive: -0.938%,
COc1ccc(/C=C2\SC(=O)N(CCC(=O)NCCCn3ccnc3)C2=O)cc1,,"inconclusive: 16.4 µM [activator, single point]"
CCc1nnc(N2CCN(c3ncnc4c3oc3ccccc34)CC2)s1,,"inconclusive: 22.4 µM [inhibitor, single point]"
CCOC(=O)[C@H]1[C@H]2COc3ccc(Cl)cc3[C@@H]2N2C(=O)c3cc(Cl)ccc3NC(=O)[C@@]12C,,"inconclusive: 35.5 µM [inhibitor, single point]"

# Sorted by count of non-hydrogen atoms (high to low): some entries from above
Compound,"activity change, negative = inhibition",Potency
Cc1nc(N2CCN(c3ccccn3)CC2)c2c(C)c(C(=O)Nc3ccc(F)cc3Cl)sc2n1,,"inconclusive: 13 µM [inhibitor, partial curve]"
Cc1cccc(-n2cnc(C(=O)NNC(=S)Nc3ccc(Cl)cc3)c2)n1,,"inconclusive: 13 µM [inhibitor, partial curve]"
Cc1cc(C)n(CCOC(=O)c2sc3ccccc3c2Cl)n1,,"inconclusive: 20.6 µM [activator, single point]"
